In patent publication US20080019909A1, “Modulation of Programmed Necrosis” (priority 2003, published 2008):
For at least one compound, name, drawing or mass did not settle the structure.

Key:
caspase-8 -/- J3.2 cells = assay: TNF cytotoxic assay (cell loss by PI exclusion on FACS), caspase-8 -/- J3.2 cells; settings: rhTNF 15-16 hours, zVAD-fmk or 0.5 mM GA pretreatment
FADD -/- I42 cells = assay: TNF cytotoxic assay (cell loss by PI exclusion on FACS), FADD -/- I42 cells; type: cell-based; settings: TNF 16 hours, zVAD-fmk or GA
Protocol: Cells were stimulated with, TNF or anti-Fas antibody (CH11) for 12 hours and cell loss was analyzed on the GFP+ cells by PI exclusion on FACS.
FIG. 8F is a bar graph depicting the results of experiments in which FADD -/- I42 cells and caspase-8 -/- J3.2 cells (both are TNFR-2+) were stimulated with TNF in the presence or absence of zVAD-fmk for 16 hours.

SMILES: COC1=C2C[C@@H](C)C[C@H](OC)[C@H](O)[C@@H](C)/C=C(\C)[C@H](OC(N)=O)[C@@H](OC)/C=C\C=C(/C)C(=O)NC(=CC1=O)C2=O [geldanamycin]
- TNF-induced programmed necrosis (cell loss) (caspase-8 -/- J3.2 cells): completely suppressed
- TNF-induced programmed necrosis (cell loss) (FADD -/- I42 cells): completely suppressed
